Here are results for one substance from publication PMC2700282.

By UniProt entry, the sequences of proteins in these tests, tags left out.
UniProt Q6KC79: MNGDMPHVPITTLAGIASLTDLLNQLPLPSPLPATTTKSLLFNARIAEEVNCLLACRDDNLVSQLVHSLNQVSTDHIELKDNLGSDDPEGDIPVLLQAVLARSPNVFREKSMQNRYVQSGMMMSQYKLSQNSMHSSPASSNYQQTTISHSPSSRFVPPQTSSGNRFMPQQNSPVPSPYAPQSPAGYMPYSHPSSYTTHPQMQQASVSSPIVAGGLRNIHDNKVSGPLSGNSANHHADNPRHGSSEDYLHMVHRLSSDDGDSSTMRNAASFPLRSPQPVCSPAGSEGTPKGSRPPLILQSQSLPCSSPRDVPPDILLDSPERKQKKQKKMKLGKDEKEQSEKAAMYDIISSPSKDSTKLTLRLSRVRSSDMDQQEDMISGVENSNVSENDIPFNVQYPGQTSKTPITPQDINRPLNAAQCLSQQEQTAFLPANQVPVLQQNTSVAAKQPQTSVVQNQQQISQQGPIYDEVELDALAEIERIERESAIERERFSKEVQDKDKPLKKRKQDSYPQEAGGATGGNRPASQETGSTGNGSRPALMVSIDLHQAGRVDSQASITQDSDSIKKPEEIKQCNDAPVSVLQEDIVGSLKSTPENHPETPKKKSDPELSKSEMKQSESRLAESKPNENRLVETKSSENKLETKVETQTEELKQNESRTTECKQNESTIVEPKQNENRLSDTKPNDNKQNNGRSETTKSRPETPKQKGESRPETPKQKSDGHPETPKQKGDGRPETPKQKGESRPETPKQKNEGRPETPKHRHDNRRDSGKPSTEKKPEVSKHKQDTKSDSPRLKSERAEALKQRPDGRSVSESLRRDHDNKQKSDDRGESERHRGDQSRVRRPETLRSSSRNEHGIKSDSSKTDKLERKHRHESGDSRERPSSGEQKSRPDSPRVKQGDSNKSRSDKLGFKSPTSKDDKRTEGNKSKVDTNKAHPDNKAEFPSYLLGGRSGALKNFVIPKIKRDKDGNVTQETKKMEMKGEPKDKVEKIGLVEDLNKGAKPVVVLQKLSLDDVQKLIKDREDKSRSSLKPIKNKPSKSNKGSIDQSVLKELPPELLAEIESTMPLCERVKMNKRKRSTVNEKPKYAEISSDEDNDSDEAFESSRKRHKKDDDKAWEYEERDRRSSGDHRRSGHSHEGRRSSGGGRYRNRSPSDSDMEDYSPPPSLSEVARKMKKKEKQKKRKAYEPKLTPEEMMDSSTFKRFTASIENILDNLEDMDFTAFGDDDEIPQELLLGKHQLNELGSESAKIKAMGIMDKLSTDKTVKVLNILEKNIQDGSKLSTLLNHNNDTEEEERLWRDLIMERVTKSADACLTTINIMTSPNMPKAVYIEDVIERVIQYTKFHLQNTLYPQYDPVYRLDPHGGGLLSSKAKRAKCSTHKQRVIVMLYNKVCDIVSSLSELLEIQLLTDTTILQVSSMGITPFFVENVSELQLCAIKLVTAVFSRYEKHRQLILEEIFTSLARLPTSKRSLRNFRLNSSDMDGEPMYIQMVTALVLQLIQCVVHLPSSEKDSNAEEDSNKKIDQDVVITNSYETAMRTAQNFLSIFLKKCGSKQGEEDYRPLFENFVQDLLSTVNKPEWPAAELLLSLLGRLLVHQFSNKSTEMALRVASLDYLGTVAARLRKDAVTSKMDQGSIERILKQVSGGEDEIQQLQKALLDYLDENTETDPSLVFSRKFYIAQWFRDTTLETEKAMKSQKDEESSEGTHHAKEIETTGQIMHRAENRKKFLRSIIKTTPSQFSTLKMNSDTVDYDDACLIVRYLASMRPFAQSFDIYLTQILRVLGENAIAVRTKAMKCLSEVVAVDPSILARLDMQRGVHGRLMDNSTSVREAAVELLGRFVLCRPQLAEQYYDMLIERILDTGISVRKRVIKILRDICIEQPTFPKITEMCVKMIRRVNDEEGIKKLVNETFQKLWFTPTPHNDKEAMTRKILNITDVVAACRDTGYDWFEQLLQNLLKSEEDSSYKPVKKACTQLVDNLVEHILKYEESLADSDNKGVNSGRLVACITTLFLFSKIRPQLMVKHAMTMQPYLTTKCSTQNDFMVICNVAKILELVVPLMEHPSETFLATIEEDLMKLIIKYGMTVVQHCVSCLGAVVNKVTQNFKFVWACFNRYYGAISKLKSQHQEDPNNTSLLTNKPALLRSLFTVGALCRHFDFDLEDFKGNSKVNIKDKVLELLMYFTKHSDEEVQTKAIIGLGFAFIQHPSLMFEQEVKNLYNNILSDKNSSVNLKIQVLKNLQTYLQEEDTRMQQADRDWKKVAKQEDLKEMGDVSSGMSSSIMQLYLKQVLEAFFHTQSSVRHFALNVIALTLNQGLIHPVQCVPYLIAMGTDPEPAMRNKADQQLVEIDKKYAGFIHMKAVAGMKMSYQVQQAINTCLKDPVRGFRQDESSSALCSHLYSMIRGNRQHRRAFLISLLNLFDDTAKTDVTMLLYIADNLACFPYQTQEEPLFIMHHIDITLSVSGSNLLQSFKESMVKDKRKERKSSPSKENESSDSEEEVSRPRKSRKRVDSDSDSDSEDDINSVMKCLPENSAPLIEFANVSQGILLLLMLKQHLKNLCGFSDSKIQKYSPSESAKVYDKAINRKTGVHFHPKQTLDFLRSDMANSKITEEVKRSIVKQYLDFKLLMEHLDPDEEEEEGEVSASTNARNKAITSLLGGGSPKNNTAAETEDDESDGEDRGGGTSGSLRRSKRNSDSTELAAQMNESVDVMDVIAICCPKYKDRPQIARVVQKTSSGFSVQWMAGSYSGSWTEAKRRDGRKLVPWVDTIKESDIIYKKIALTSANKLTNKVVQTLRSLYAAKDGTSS
UniProt Q13185: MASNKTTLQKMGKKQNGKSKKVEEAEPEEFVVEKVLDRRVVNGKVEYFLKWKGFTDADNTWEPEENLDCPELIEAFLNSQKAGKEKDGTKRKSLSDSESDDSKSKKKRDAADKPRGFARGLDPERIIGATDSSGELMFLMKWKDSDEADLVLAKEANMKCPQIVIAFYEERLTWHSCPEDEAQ

Results are given in words; binding and its absence hold for the method and conditions named. Binding seen in cells or lysates may run through a third protein. Some results given as binding are weak or reduced against the parent protein; the word gives no strength.

The experiment deals with cohesin loading factor Scc2 (human (endogenous in HeLa)) (UniProt Q6KC79). The experiment is described as follows: co-IP; HeLa nuclear extracts; IP with antibody specific for Scc2 or cohesin (Rad21); washed four times with 0.1 M KCl buffer, eluted with 1.0 M KCl ("wash"), then 2.0 M guanidine-HCl ("eluate"); western blot for HP1γ or CTCF.

HP1γ (from UniProt Q13185 1-183): the binding result was “binds weakly”.
